From patent publication US5861477A (priority 1996, dated 1999)
“Also recorded” adds a separate entry of the source. At least one peptide structure holds a part that was inferred or is arguable (an end, a ring closure or a residue). Where a SMILES comes first, the peptide text is derived from it. Bridges are numbered along the chain shown (N, C = ends).

How the values were obtained:
[1] = system: M. lysodeikticus cell wall; experiment: Lysozyme activity: hydrolysis of M. lysodeikticus; type: biochemical, Micrococcus lysodeikticus; conditions: for hydrolytic activity on M. lysodeikticus: in words
Procedure: Measurement of Lysozyme Activity. […] The decrease in turbidity was measured at 450 nm on a recording spectrophotometer. […] Kinetic constants were determined from the linear plots of 1/initial velocity (in change of absorbance/min) against 1/substrate concentration in mg/ml as described (Lineweaver, H. and Burk, D. (1934) J. Amer. Chem. Soc. 56, 658-666). […] Applicant always dedicated a separate spectrophotometer cuvette for this positive control. […] The decrease in turbidity was monitored at room temperature at 450 nm.

[2] = system: yeast RNA; experiment: Ribonuclease activity: hydrolysis of yeast RNA; type: biochemical; conditions: for hydrolytic activity on yeast RNA: in words
Procedure: Measurement of Ribonuclease Activity. The catalytic activity of RNase and RnPepz were determined by their hydrolytic effects on yeast RNA (Kunitz, M. (1946) J. Biol. Chem. 164, 563-569; Gutte, B. and […]. Biol. Chem. 246, 1922-1941). […] The decrease in absorbance at 300 nm with time was measured on the recording spectrophotometer. Reaction mixtures that contained no catalyst as well as mixtures containing LyPepz or other cyclic peptides unrelated to RNase were used as controls. The kinetic parameters of the hydrolytic activities were determined by Lineweaver-Burk plots (Lineweaver, H. and Burk, D. (1934) J. Amer. Chem. Soc. 56, 658-666) of 1/absorbance change per minute against 1/substrate concentration in mg per ml. […] The change in absorbance with the test samples (RnPepz) was correlated for the small change obtained with the same amount of unrelated peptides (negative controls) acting on the corresponding concentration of substrate. […] The effects of disulfide-bond reduction on RNase and RnPepz activities were determined by premixing each catalyst (RNase, 1.095×10^-4 μmole; […] The reactions were monitored by the decrease in absorbance at 300 nm as above. The effects of inhibitors (denatured DNA or Ag^+) on activities were also done by pre-mixing RNase or RnPepz with denatured DNA (250 μg) or with 10 molar excess of AgNO3 prior to addition to RNA, using the same amounts of catalyst and substrate described for DTT. Denaturation of DNA was done by boiling a solution in water (1 mg/ml) for 10 min, then chilling immediately in ice.

[3] = 10 molar excess, pre-mixed 3 hr
[4] = hydrolysis of M. lysodeikticus, 25° C., 0.125M NaCl
[5] = hydrolysis of yeast RNA, 0.1M sodium acetate, pH 5.0, 25° C.

`CC[C@H](C)[C@@H]1NC(=O)CNC(=O)CNC(=O)[C@H](Cc2c[nH]c3ccccc23)NC(=O)[C@H](Cc2c[nH]c3ccccc23)NC(=O)CNC(=O)[C@H](CC(N)=O)NC(=O)[C@H]([C@@H](C)CC)NC(=O)[C@H](CCC(=O)O)NC(=O)[C@H](CC(C)C)NC(=O)CNC(=O)CNC(=O)[C@H](CC(=O)O)NC(=O)CNC(=O)CNC(=O)[C@H](CC(N)=O)NC(=O)[C@H](CCCNC(=N)N)NC(=O)[C@H](CC(N)=O)NC(=O)[C@H]([C@@H](C)O)NC(=O)[C@@H](N)CSSC[C@@H](C(=O)O)NC(=O)[C@H](CC(N)=O)NC(=O)[C@H](CO)NC(=O)[C@H](CCC(=O)O)NC(=O)[C@H](Cc2ccccc2)NC(=O)CNC(=O)[C@H](CCCNC(=N)N)NC(=O)CNC(=O)[C@H](C)NC(=O)[C@H](C(C)C)NC(=O)[C@H](Cc2c[nH]c3ccccc23)NC(=O)[C@H](C)NC(=O)CNC(=O)[C@H](CC(=O)O)NC(=O)CNC(=O)[C@H](CC(=O)O)NC(=O)CNC1=O` [LyPepz, cyclo(-S-cystinyl-threonyl-asparagyl-arginyl-asparagyl-glycyl-glycyl-aspartyl-glycyl-glycyl-leucyl-glutamyl-isoleucyl-asparagyl-glycyl-tryptophanyl-tryptophanyl-glycyl-glycyl-isoleucyl-glycyl-aspartyl-glycyl-aspartyl-glycyl-alanyl-tryptophanyl-valyl-alanyl-glycyl-arginyl-glycyl-phenylalanyl-glutamyl-seryl-asparagyl-cystinyl-S)] (H-CTNRNGGDGGLEINGWWGGIGDGDGAWVAGRGFESNC-OH; disulfide 1-37) was tested, and the “activity on M. lysodeikticus after reduction of the disulfide bond” value ([1]; 10 molar excess of dithiothreitol, 3 hr) was “near zero hydrolytic activity; also recorded: completely inactive; also recorded: completely lost; also recorded: total loss of activity”, the “activity on M. lysodeikticus in presence of histamine” value [1, 3] was “near zero hydrolytic activity; also recorded: almost completely inhibited” and the “activity on M. lysodeikticus in presence of imidazole” value [1, 3] was “near zero hydrolytic activity; also recorded: almost completely inhibited”. The “activity on M. lysodeikticus in presence of tryptamine” value [1, 3] was “near zero hydrolytic activity; also recorded: almost completely inhibited”, the Km [1, 4] was 133.4 ± 2.6 mg/L and the kcat [1, 4] was 1.38 ± 0.01 OD units/μmole/sec. The “hydrolytic activity on M. lysodeikticus” value [1] was “complete hydrolysis” and the “hydrolytic activity on yeast RNA” value [2] was “no activity; also recorded: no effect; also recorded: lack of action”.

For `CC(C)[C@@H]1NC(=O)CNC(=O)[C@H](CCC(=O)O)NC(=O)[C@@H](N)CSSC[C@@H](C(=O)O)NC(=O)[C@H](CCCCN)NC(=O)[C@H](Cc2ccccc2)NC(=O)CNC(=O)[C@H](Cc2c[nH]cn2)NC(=O)[C@H](CCC(=O)O)NC(=O)CNC(=O)CNC(=O)[C@H](CCCCN)NC(=O)[C@@H]2CCCN2C(=O)[C@H](C(C)C)NC(=O)[C@H](CC(N)=O)NC(=O)[C@H]([C@@H](C)O)NC(=O)CNC(=O)CNC(=O)[C@H](CO)NC(=O)[C@H](C)NC(=O)[C@H](CC(=O)O)NC(=O)[C@H](Cc2ccccc2)NC(=O)[C@H](Cc2c[nH]cn2)NC1=O` [RnPepz, cyclo(-S-cystinyl-glutamyl-glycyl-valyl-histidyl-phenylalanyl-aspartyl-alanyl-seryl-glycyl-glycyl-threonyl-asparagyl-valyl-prolyl-lysyl-glycyl-glycyl- glutamyl-histidyl-glycyl-phenylalanyl-lysyl-cystinyl-S)] (H-CEGVHFDASGGTNVPKGGEHGFKC-OH; disulfide 1-24), the “hydrolytic activity on M. lysodeikticus” value [1] was “near zero hydrolytic activity; also recorded: no muramidase activity; also recorded: no hydrolytic activity; also recorded: inability to hydrolyze”, the “activity on yeast RNA in presence of denatured DNA” value ([2]; 250 μg denatured DNA) was “completely inhibited; also recorded: complete inhibition” and the “activity on yeast RNA in presence of Ag^+ (heavy metals)” value ([2]; 10 molar excess of AgNO3) was “completely inhibited; also recorded: complete inhibition”. The “activity on yeast RNA after reduction of the disulfide bond” value ([2]; 10 molar excess of DTT, 3 hr) was “completely lost; also recorded: completely destroyed; also recorded: total loss of activity”, the “hydrolytic activity on yeast RNA at 10° C.” value ([2]; 10° C.) was “neither RnPepz nor RNase had any measurable hydrolytic activity” and the Km [2, 5] was 1238 ± 228 mg/L. For the same compound, the kcat [2, 5] was 0.559 ± 0.01 OD units/μmole/sec and the “hydrolytic activity on yeast RNA” value [2] was “hydrolyze yeast RNA completely; also recorded: complete hydrolysis”.
